Source: PubChem BioAssay AID1259254 (NCATS, 2017)
The whole screen tested about 59,000 reagents; this is a part drawn at random. About 1,550 of all reagents (2.6%) were called active. 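G2 share is only a proxy for re-replication; each gene was hit by three separate siRNAs, and active genes were retested.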 The numbers tell different reagents against one gene apart. Not all columns of the deposit are shown. Not stated in the record: the amount of reagent.

- Screen: 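Gene knock-downs that lead to re-replication, shown by excess G2 DNA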 (primary screen)
- Cell system: human HCT116 colorectal cancer cells
- Reagents: single siRNA against human genes
- Timing: 3 days
- Measured: 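Nuclei stained with Hoechst and imaged; cell-cycle phase assigned by DNA content; G2 share scaled per plate, non-targeting siRNA 0%, GMNN siRNA 100%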
- Reading the numbers: G2 robust z-score: higher = more G2 cells, more excess DNA replication
- Hit rule: 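Active siRNAs have a G2 robust z of 5 or more median absolute deviations over the median, which in these data means about 38% or higher of GMNN control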

The first 7 records, ahead of the listing:
| target | reagent | G2 robust z-score | Outcome |
| --- | --- | --- | --- |
| ETS2-AS1 | 1 | 1.57 | inactive |
| ETS2-AS1 | 2 | 3.89 | inactive |
| ETS2-AS1 | 3 | 0.0892 | inactive |
| SERPINE2 | 1 | -1.22 | inactive |
| SERPINE2 | 2 | 0.548 | inactive |
| SERPINE2 | 3 | -0.684 | inactive |
| CACNG4 | 1 | -0.415 | inactive |

The list itself, repeating the preview:
| target | reagent | G2 robust z-score | Outcome |
| --- | --- | --- | --- |
| ETS2-AS1 | 1 | 1.57 | inactive |
| ETS2-AS1 | 2 | 3.89 | inactive |
| ETS2-AS1 | 3 | 0.0892 | inactive |
| SERPINE2 | 1 | -1.22 | inactive |
| SERPINE2 | 2 | 0.548 | inactive |
| SERPINE2 | 3 | -0.684 | inactive |
| CACNG4 | 1 | -0.415 | inactive |
| CACNG4 | 2 | 4.56 | inactive |
| CACNG4 | 3 | 2.22 | inactive |
| STK16 | 1 | 3.44 | inactive |
| STK16 | 2 | -0.98 | inactive |
| STK16 | 3 | -0.46 | inactive |
| ARHGAP18 | 1 | 0.42 | inactive |
| ARHGAP18 | 2 | -0.28 | inactive |
| ARHGAP18 | 3 | -0.448 | inactive |
| COPS7B | 1 | 2.6 | inactive |
| COPS7B | 2 | 1.94 | inactive |
| COPS7B | 3 | 0.511 | inactive |
| KREMEN1 | 1 | -0.386 | inactive |
| KREMEN1 | 2 | -0.598 | inactive |
| KREMEN1 | 3 | 2.66 | inactive |
| STAT5B | 1 | -0.728 | inactive |
| STAT5B | 2 | -1.45 | inactive |
| STAT5B | 3 | -0.256 | inactive |
| U2AF1L4 | 1 | -0.488 | inactive |
| U2AF1L4 | 2 | 1.61 | inactive |
| U2AF1L4 | 3 | -0.478 | inactive |
| A4GNT | 1 | 0.0928 | inactive |
| A4GNT | 2 | -0.327 | inactive |
| A4GNT | 3 | 0.588 | inactive |
| AKAP10 | 1 | 3.15 | inactive |
| AKAP10 | 2 | -0.603 | inactive |
| AKAP10 | 3 | 0.229 | inactive |
| ELMO2 | 1 | 0.166 | inactive |
| ELMO2 | 2 | -0.11 | inactive |
| ELMO2 | 3 | -0.67 | inactive |
| ZNF616 | 1 | 0.926 | inactive |
| ZNF616 | 2 | 0.17 | inactive |
| ZNF616 | 3 | -0.139 | inactive |
| ARMC12 | 1 | -1.01 | inactive |
| ARMC12 | 2 | 4.92 | inactive |
| ARMC12 | 3 | 1.16 | inactive |
| FLYWCH2 | 1 | -0.155 | inactive |
| FLYWCH2 | 2 | 0.297 | inactive |
| FLYWCH2 | 3 | -0.332 | inactive |
| SPIRE1 | 1 | 0.682 | inactive |
| SPIRE1 | 2 | 2.75 | inactive |
| SPIRE1 | 3 | 2.15 | inactive |
| MXRA5 | 1 | -0.347 | inactive |
| MXRA5 | 2 | -0.673 | inactive |
| MXRA5 | 3 | -0.928 | inactive |
| RIPK3 | 1 | -0.202 | inactive |
| RIPK3 | 2 | 0.221 | inactive |
| RIPK3 | 3 | -1.12 | inactive |
| ZNF229 | 1 | -0.575 | inactive |
| ZNF229 | 2 | -0.14 | inactive |
| ZNF229 | 3 | 0.918 | inactive |
| LINC00239 | 1 | 3.79 | inactive |
| LINC00239 | 2 | 0.911 | inactive |
| LINC00239 | 3 | -0.816 | inactive |
| ZKSCAN8P1 | 1 | -0.508 | inactive |
| ZKSCAN8P1 | 2 | 0.122 | inactive |
| ZKSCAN8P1 | 3 | 0.418 | inactive |
| ARHGAP11B | 1 | 0.233 | inactive |
| ARHGAP11B | 2 | -0.567 | inactive |
| ARHGAP11B | 3 | -0.521 | inactive |
| LCE3D | 1 | -0.419 | inactive |
| LCE3D | 2 | 5.77 | active |
| LCE3D | 3 | 0.559 | inactive |
